Taken from: PubChem BioAssay AID1224828 (NIAID, 2016)
Screen: 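Regulators linking TLR4 signalling to p65 nuclear translocation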 (primary screen). Cell system: mouse RAW264.7 G9 macrophage reporter cells (GFP-p65, Tnf promoter-mCherry). Reagents: siRNA pool against mouse genes, 100 nM. Time to read-out: 2 days siRNA transfection, then 40 min LPS before fixation. Treatment: LPS (Salmonella minnesota R595) at 10 ng/ml. Detection: 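Imaged p65 nuclear translocation ratio, normalised to the plate median, converted to robust z-scores and averaged across two replicates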. Scale: p65 translocation robust z-score: higher = more nuclear NF-kappaB p65 after LPS than the plate median; nuclear/cytoplasmic p65 ratio: higher = more nuclear NF-kappaB p65. Call rule: 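Called active when z exceeds 3.3 or falls under -1.56 (median of Tlr4 controls), giving activity score of at least 50; no calls for control wells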. Meaning of the calls: active = hit (p65 shift raised or lowered); inactive = no clear change.
The whole screen tested about 17,000 reagents; shown is a part drawn at random. Of all reagents, 762 (4.5%) were called active. 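Active calls include both raised and lowered p65 entry, mostly lowered; wells with fewer than 50 cells lack a z-score.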 Raw values vary from plate to plate and are shown uncorrected. No sequences are given here.

| Gene | p65 translocation robust z-score | nuclear/cytoplasmic p65 ratio, rep 1 | nuclear/cytoplasmic p65 ratio, rep 2 | low cell count flag | call |
| --- | --- | --- | --- | --- | --- |
| Alyref (Aly/REF export factor) | -1.49 | 1.17 | 1.03 | enough cells to score | inactive |
| Aco1 (aconitase 1) | -0.58 | 1.57 | 1.54 | enough cells to score | inactive |
| Supv3l1 (suppressor of var1, 3-like 1 (S. cerevisiae)) | -0.46 | 1.42 | 1.13 | enough cells to score | inactive |
| Bcl2a1a (B cell leukemia/lymphoma 2 related protein A1a) | – | 1.3 | 1.43 | fewer than 50 cells per well; well left out of scoring | inactive |
| Cyria (CYFIP related Rac1 interactor A) | -0.55 | 1.52 | 1.67 | enough cells to score | inactive |
| Yars2 (tyrosyl-tRNA synthetase 2 (mitochondrial)) | – | 1.48 | 1.22 | fewer than 50 cells per well; well left out of scoring | inactive |
| Tmem38b (transmembrane protein 38B) | – | 1.21 | 1.51 | fewer than 50 cells per well; well left out of scoring | inactive |
| Ncapg2 (non-SMC condensin II complex, subunit G2) | -0.33 | 1.3 | 1.44 | enough cells to score | inactive |
| Msr1 (macrophage scavenger receptor 1) | -0.52 | 1.37 | 1.21 | enough cells to score | inactive |
| Npy2r (neuropeptide Y receptor Y2) | 0.38 | 1.52 | 1.68 | enough cells to score | inactive |
| Pgm3 (phosphoglucomutase 3) | -0.09 | 1.4 | 1.26 | enough cells to score | inactive |
| Ap3m1 (adaptor-related protein complex 3, mu 1 subunit) | 2.34 | 1.83 | 1.96 | enough cells to score | inactive |
| Knstrn (kinetochore-localized astrin/SPAG5 binding) | 0.33 | 1.6 | 1.61 | enough cells to score | inactive |
| Id2 (inhibitor of DNA binding 2) | 0.14 | 1.44 | 1.41 | enough cells to score | inactive |
| Ces2g (carboxylesterase 2G) | -0.01 | 1.25 | 1.41 | enough cells to score | inactive |
| Pak1ip1 (PAK1 interacting protein 1) | 0.04 | 1.39 | 1.29 | enough cells to score | inactive |
| Ino80c (INO80 complex subunit C) | 0.63 | 1.6 | 1.96 | enough cells to score | inactive |
| 2210016L21Rik (RIKEN cDNA 2210016L21 gene) | – | 1.5 | 1.19 | fewer than 50 cells per well; well left out of scoring | inactive |
| Bscl2 (BSCL2 lipid droplet biogenesis associated, seipin) | 0.13 | 1.65 | 1.61 | enough cells to score | inactive |
| Rnf125 (ring finger protein 125) | -0.7 | 1.35 | 1.12 | enough cells to score | inactive |
| Kifbp (kinesin family binding protein) | 0.16 | 1.42 | 1.65 | enough cells to score | inactive |
| Rassf3 (Ras association (RalGDS/AF-6) domain family member 3) | -0.09 | 1.3 | 1.27 | enough cells to score | inactive |
| Ccdc117 (coiled-coil domain containing 117) | 0.24 | 1.32 | 1.89 | enough cells to score | inactive |
| Prdx2 (peroxiredoxin 2) | -0.48 | 1.37 | 1.4 | enough cells to score | inactive |
| Cyp11a1 (cytochrome P450, family 11, subfamily a, polypeptide 1) | 1.09 | 1.68 | 1.47 | enough cells to score | inactive |
| Gldn (gliomedin) | 1.14 | 1.7 | 2.01 | enough cells to score | inactive |
| Eid2 (EP300 interacting inhibitor of differentiation 2) | 0.8 | 1.97 | 1.6 | enough cells to score | inactive |
| Adamts12 (ADAM metallopeptidase with thrombospondin type 1 motif 12) | -0.59 | 1.47 | 1.59 | enough cells to score | inactive |
| Rbm15 (RNA binding motif protein 15) | 0.09 | 1.48 | 1.58 | enough cells to score | inactive |
| Dram1 (DNA-damage regulated autophagy modulator 1) | -0.19 | 1.44 | 1.39 | enough cells to score | inactive |
| 4933436I01Rik (RIKEN cDNA 4933436I01 gene) | -1.64 | 1.37 | 1.24 | enough cells to score | active |
| Rtraf (RNA transcription, translation and transport factor) | 0.25 | 1.45 | 1.48 | enough cells to score | inactive |
| Or5b97 (olfactory receptor family 5 subfamily B member 97) | 0.42 | 1.76 | 1.4 | enough cells to score | inactive |
| Tnfrsf12a (tumor necrosis factor receptor superfamily, member 12a) | -0.2 | 1.46 | 1.52 | enough cells to score | inactive |
| 1700088E04Rik (RIKEN cDNA 1700088E04 gene) | 0.2 | 1.36 | 1.51 | enough cells to score | inactive |
| Ylpm1 (YLP motif containing 1) | -0.58 | 1.28 | 1.23 | enough cells to score | inactive |
| Neto1 (neuropilin (NRP) and tolloid (TLL)-like 1) | – | 1.38 | 1.07 | fewer than 50 cells per well; well left out of scoring | inactive |
| a (nonagouti) | -1.15 | 1.47 | 1.41 | enough cells to score | inactive |
| Pck1 (phosphoenolpyruvate carboxykinase 1, cytosolic) | 1.75 | 2.07 | 1.51 | enough cells to score | inactive |
| Tradd (TNFRSF1A-associated via death domain) | 0.83 | 1.58 | 1.66 | enough cells to score | inactive |

Look-ups from the entries so far:
Under “nuclear/cytoplasmic p65 ratio, rep 1”, Pgm3 (phosphoglucomutase 3) reads 1.4
For “p65 translocation robust z-score”, Tnfrsf12a (tumor necrosis factor receptor superfamily, member 12a) has -0.2
For “nuclear/cytoplasmic p65 ratio, rep 1”, Rassf3 (Ras association (RalGDS/AF-6) domain family member 3) is entered as 1.3
Yars2 (tyrosyl-tRNA synthetase 2 (mitochondrial)), nuclear/cytoplasmic p65 ratio, rep 2 = 1.22
a (nonagouti), low cell count flag = enough cells to score
